Data source: PubChem BioAssay AID602196 (INSERM, 2012)
Aim: 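Genes whose knock-down alters cisplatin killing of lung cancer cells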. Cells: human A549 lung cancer cells. Knock-down reagent: siRNA pair against human genes. Duration: 48 h transfection before cisplatin; time from cisplatin to read-out not stated. Challenge: cisplatin at a dose killing half of control-siRNA cells; exact dose and duration not given. Detection: 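Cisplatin cell death as a shift from the 50% death seen with control siRNA; siRNAs toxic or growth-blocking alone scored 0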. Reading the numbers: two-siRNA summed score (-2 to +2): higher = both siRNAs protect from cisplatin killing; -2 means both sensitise; mean protection from cisplatin (shift in death): higher = protection from cisplatin killing. Call rule: 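Each siRNA scores 0 if harmful alone by LDH or WST-1, otherwise +1 if it reduces and -1 if it increases cisplatin killing; a gene is active when both siRNAs agree (sum +2 or -2)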. Meaning of the calls: active = both siRNAs shift cisplatin killing the same way; inactive = no consistent shift, or siRNA harmful alone.
The whole screen tested about 23,000 reagents; this is an unselected part. In the full data, 455 (2%) were called active. 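Active includes both protection and sensitisation; some change values fall well beyond the stated -50 to +50 range.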 Further read-outs or replicates are left out here. Reagent sequences are not shown. The record does not give: the amount of reagent.

Which result is listed for LOC441335?
two-siRNA summed score (-2 to +2): 1; mean protection from cisplatin (shift in death) (%): 8.1; outcome: inactive

For DNM1 (GeneID 1759), what was measured?
two-siRNA summed score (-2 to +2): 0; mean protection from cisplatin (shift in death) (%): 6.5; outcome: inactive

How did the screen score DHX29 (GeneID 54505)?
two-siRNA summed score (-2 to +2): 0; mean protection from cisplatin (shift in death) (%): 14.2; outcome: inactive

With SRGAP2 (GeneID 23380), how do the results read?
two-siRNA summed score (-2 to +2): 0; mean protection from cisplatin (shift in death) (%): 3.1; outcome: inactive

What is on record for CARF (GeneID 79800)?
two-siRNA summed score (-2 to +2): 0; mean protection from cisplatin (shift in death) (%): 7.2; outcome: inactive

For ECEL1 (GeneID 9427), what was measured?
two-siRNA summed score (-2 to +2): -1; mean protection from cisplatin (shift in death) (%): -14.1; outcome: inactive

How did the screen score SPHK1 (GeneID 8877)?
two-siRNA summed score (-2 to +2): 1; mean protection from cisplatin (shift in death) (%): 18.1; outcome: inactive

For DERL1 (GeneID 79139), what was measured?
two-siRNA summed score (-2 to +2): 0; mean protection from cisplatin (shift in death) (%): 9.5; outcome: inactive

Which result is listed for LMNB2 (GeneID 84823)?
two-siRNA summed score (-2 to +2): 0; mean protection from cisplatin (shift in death) (%): -2.9; outcome: inactive

For NWD1 (GeneID 284434), how do the results read?
two-siRNA summed score (-2 to +2): 1; mean protection from cisplatin (shift in death) (%): 12.1; outcome: inactive

With LOC388351, what was measured?
two-siRNA summed score (-2 to +2): 1; mean protection from cisplatin (shift in death) (%): 9.5; outcome: inactive

For SFTPB (GeneID 6439), what was measured?
two-siRNA summed score (-2 to +2): 0; mean protection from cisplatin (shift in death) (%): 16.8; outcome: inactive

How did the screen score PSIP1 (GeneID 11168)?
two-siRNA summed score (-2 to +2): 0; mean protection from cisplatin (shift in death) (%): 0.9; outcome: inactive

For ZNF594 (GeneID 84622), what was measured?
two-siRNA summed score (-2 to +2): 0; mean protection from cisplatin (shift in death) (%): 14.8; outcome: inactive

What did the screen give for LOC441222?
two-siRNA summed score (-2 to +2): 0; mean protection from cisplatin (shift in death) (%): 1.6; outcome: inactive

With LOC148198, how do the results read?
two-siRNA summed score (-2 to +2): 0; mean protection from cisplatin (shift in death) (%): 15.3; outcome: inactive

What did the screen give for CLUH (GeneID 23277)?
two-siRNA summed score (-2 to +2): 0; mean protection from cisplatin (shift in death) (%): -12.6; outcome: inactive

What is on record for TAFA1 (GeneID 407738)?
two-siRNA summed score (-2 to +2): 0; mean protection from cisplatin (shift in death) (%): 8.3; outcome: inactive

For LOC441540, how do the results read?
two-siRNA summed score (-2 to +2): 1; mean protection from cisplatin (shift in death) (%): 14; outcome: inactive

Which result is listed for HNRNPU (GeneID 3192)?
two-siRNA summed score (-2 to +2): 0; mean protection from cisplatin (shift in death) (%): -4.3; outcome: inactive

For ASPSCR1 (GeneID 79058), what was measured?
two-siRNA summed score (-2 to +2): 0; mean protection from cisplatin (shift in death) (%): -5.4; outcome: inactive

What did the screen give for TJAP1P1 (GeneID 392539)?
two-siRNA summed score (-2 to +2): 1; mean protection from cisplatin (shift in death) (%): 8.2; outcome: inactive

How did the screen score LOC389224?
two-siRNA summed score (-2 to +2): 0; mean protection from cisplatin (shift in death) (%): 11.8; outcome: inactive

How did the screen score DAG1 (GeneID 1605)?
two-siRNA summed score (-2 to +2): 0; mean protection from cisplatin (shift in death) (%): -0.1; outcome: inactive

What did the screen give for SLC7A6OS (GeneID 84138)?
two-siRNA summed score (-2 to +2): 0; mean protection from cisplatin (shift in death) (%): 9.1; outcome: inactive

For SELENOO (GeneID 83642), what does the deposit list?
two-siRNA summed score (-2 to +2): 0; mean protection from cisplatin (shift in death) (%): 8.5; outcome: inactive

Which result is listed for RP9 (GeneID 6100)?
two-siRNA summed score (-2 to +2): 0; mean protection from cisplatin (shift in death) (%): -0.1; outcome: inactive

With ASPHD2 (GeneID 57168), how do the results read?
two-siRNA summed score (-2 to +2): 1; mean protection from cisplatin (shift in death) (%): 4.7; outcome: inactive

What did the screen give for ZNF799 (GeneID 90576)?
two-siRNA summed score (-2 to +2): 0; mean protection from cisplatin (shift in death) (%): 8.4; outcome: inactive

How did the screen score NXPH2 (GeneID 11249)?
two-siRNA summed score (-2 to +2): 1; mean protection from cisplatin (shift in death) (%): 23; outcome: inactive

What did the screen give for RFLNB (GeneID 359845)?
two-siRNA summed score (-2 to +2): 0; mean protection from cisplatin (shift in death) (%): 4.4; outcome: inactive
